No constants are given. Whether binding was seen depends on the method and setting. Some binding calls cover weakened binding; strength is not graded here. For part of these data: Sequences can lack the tags named with a protein.
Columns and labels:
[1] = molecular target: IgE-Fc (UniProt P01854); test: SPR (Biacore), FIG. 9a
[2] = molecular target: IgE-Fc (UniProt P01854); test: SPR (Biacore)
[3] = molecular target: IgE-Fc (UniProt P01854); test: flow cytometry competition: 1 nM IgE-Fc-A488 binding to FcεRI on RBL SX-38 cells
[4] = molecular target: IgE-Fc (UniProt P01854); test: SPR, blank subtracted, anti-IgE molecule 4-0.031 µM over 1:1 α-Cε4 Fab/IgE-Fc complex
[5] = molecular target: IgE-Fc (UniProt P01854); test: SPR dissociation phase, α-Cε4 Fab captured IgE-Fc at average spacings of 40, 80 and 110 nm [right plot]
[6] = molecular target: IgE-Fc (UniProt P01854); test: SPR dissociation phase, α-Cε4 Fab captured IgE-Fc at average spacings of 40, 80 and 110 nm [left plot]
[7] = molecular target: IgE-Fc (UniProt P01854); test: SPR dissociation phase, α-Cε4 Fab captured IgE-Fc at average spacings of 40, 80 and 110 nm [middle plot]

Chains of the proteins cited; added tags and fusions are not shown. Lines headed by an entry give the natural chain unless they say otherwise; changes in a name come on top. A line that says so, or that is headed by a name, gives the form on record, which may keep a tag or linker.
IgE-Fc (P01854, form named): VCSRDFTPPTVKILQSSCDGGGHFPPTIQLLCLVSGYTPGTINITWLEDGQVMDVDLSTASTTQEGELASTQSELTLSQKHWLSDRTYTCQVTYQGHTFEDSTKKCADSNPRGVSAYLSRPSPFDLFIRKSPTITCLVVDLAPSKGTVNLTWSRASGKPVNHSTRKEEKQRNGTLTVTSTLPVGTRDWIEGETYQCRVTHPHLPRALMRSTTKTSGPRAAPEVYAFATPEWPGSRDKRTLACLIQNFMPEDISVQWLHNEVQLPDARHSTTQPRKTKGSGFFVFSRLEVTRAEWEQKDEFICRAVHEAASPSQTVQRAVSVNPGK

Measured: binding

B1: anti-IgE^4 (Fc fusion)
chain: EASDLLERLREEVTKLRMELQVSSGFVCNTCPEKWINFQRKCYYFGKGTKQWVHARYACDDMEGQLVSIHSPEEQDFLTKHASHTGSWIGLRNLDLKGEFIWVDGSHVDYSNWAPGEPTSRSQGEDCVMMRGSGRWNDAFCDRKLGAWVCDRLATCTPPASEGSAESMGPDSRPDPDGRLPTPSAPLHSGGGGSGGGGSGGGGSGGGGSASISAMVRSPRGPTIKPCPPCKCPAPNLEGGPSVFIFPPKIKDVLMISLSPIVTCVVVDVSEDDPDVQISWFVNNVEVHTAQTQTHREDYNSTLRVVSALPIQHQDWMSGKAFACAVNNKDLPAPIERTISKPKGSVRAPQVYVLPPPEEEMTKKQVTLTCMVTDFMPEDIYVEWTNNGKTELNYKNTEPVLDSDGSYFMYSKLRVEKKNWVERNSYSCSVVHEGLHNHHTTKSFSRTPGK
not listed: [6] | [7]
binds: all other assays above

B2: anti-IgE^0 (Fc fusion)
chain: EASDLLERLREEVTKLRMELQVSSGFVCNTCPEKWINFQRKCYYFGKGTKQWVHARYACDDMEGQLVSIHSPEEQDFLTKHASHTGSWIGLRNLDLKGEFIWVDGSHVDYSNWAPGEPTSRSQGEDCVMMRGSGRWNDAFCDRKLGAWVCDRLATCTPPASEGSAESMGPDSRPDPDGRLPTPSAPLHSASISAMVRSPRGPTIKPCPPCKCPAPNLEGGPSVFIFPPKIKDVLMISLSPIVTCVVVDVSEDDPDVQISWFVNNVEVHTAQTQTHREDYNSTLRVVSALPIQHQDWMSGKAFACAVNNKDLPAPIERTISKPKGSVRAPQVYVLPPPEEEMTKKQVTLTCMVTDFMPEDIYVEWTNNGKTELNYKNTEPVLDSDGSYFMYSKLRVEKKNWVERNSYSCSVVHEGLHNHHTTKSFSRTPGK
not listed: [5] | [7]
binds: all other assays above

B3: hCD23-G4S3-mIgG2a Fc (Fc fusion)
chain: EASDLLERLREEVTKLRMELQVSSGFVCNTCPEKWINFQRKCYYFGKGTKQWVHARYACDDMEGQLVSIHSPEEQDFLTKHASHTGSWIGLRNLDLKGEFIWVDGSHVDYSNWAPGEPTSRSQGEDCVMMRGSGRWNDAFCDRKLGAWVCDRLATCTPPASEGSAESMGPDSRPDPDGRLPTPSAPLHSGGGGSGGGGSGGGGSASISAMVRSPRGPTIKPCPPCKCPAPNLEGGPSVFIFPPKIKDVLMISLSPIVTCVVVDVSEDDPDVQISWFVNNVEVHTAQTQTHREDYNSTLRVVSALPIQHQDWMSGKAFACAVNNKDLPAPIERTISKPKGSVRAPQVYVLPPPEEEMTKKQVTLTCMVTDFMPEDIYVEWTNNGKTELNYKNTEPVLDSDGSYFMYSKLRVEKKNWVERNSYSCSVVHEGLHNHHTTKSFSRTPGK
not listed: [5] | [6]
binds: all other assays above

Reference: patent US20220332789A1
